Experimental data taken from the supplement of paper PMC4683952.
Structures can show the parent of a compound that is named as a salt. The list shows a part of the results. Rule as the data show it: active = 2.5 or more and inactive = the rest. Most values lie within the scatter of the assay; repeated measurements hardly agree.

system: Lgr5 (MarsCy1-Lgr5-EGFP, U2OS); assay: cell-surface Lgr5 expression (SCi1 fluorescence, background-subtracted) relative to WT control (fold of WT control); higher = more Lgr5 at the plasma membrane; settings: U2OS MarsCy1-Lgr5-EGFP stable; treatment time: overnight; library: Prestwick; 20 µM

Structure (SMILES) | cell-surface Lgr5 expression
CC[C@H]1OC(=O)[C@H](C)[C@@H](O[C@H]2C[C@@](C)(OC)[C@@H](O)[C@H](C)O2)[C@H](C)[C@@H](O[C@@H]2O[C@H](C)C[C@H](N(C)C)[C@H]2O)[C@](C)(O)C[C@@H](C)/C(=N\OCOCCOC)[C@H](C)[C@@H](O)[C@]1(C)O [Roxithromycin] | active: 3.08
Nc1nc(=O)c2nc(CNc3ccc(C(=O)N[C@@H](CCC(=O)O)C(=O)O)cc3)cnc2[nH]1 [Folic acid] | active: 2.72
CC(=O)N[C@@H](CC(C)C)C(=O)O [N-Acetyl-L-leucine] | inactive: 1.67
CN(C)CCN(Cc1cccs1)c1ccccn1 [Methapyrilene hydrochloride] | inactive: 1.57
COc1c(O[C@@H]2O[C@H](CO)[C@@H](O)[C@H](O)[C@H]2O)cc2c(c1OC)-c1ccc(SC)c(=O)cc1[C@@H](NC(C)=O)CC2 [Thiocolchicoside] | inactive: 1.72
Clc1ccc(C(Cn2ccnc2)OCc2c(Cl)cccc2Cl)c(Cl)c1 (configuration not stated) [Isoconazole] | inactive: 0.747
NC(=O)N1c2ccccc2C=Cc2ccccc21 [Carbamazepine] | inactive: 1.39
CO[C@H]1/C=C/O[C@@]2(C)Oc3c(C)c(O)c4c(c3C2=O)C2=NC3(CCN(CC(C)C)CC3)NC2=C(NC(=O)/C(C)=C\C=C\[C@H](C)[C@H](O)[C@@H](C)[C@@H](O)[C@@H](C)[C@H](OC(C)=O)[C@@H]1C)C4=O [Rifabutin] | inactive: 0.866
O=c1cc(-c2ccc(O)cc2)oc2cc(O)cc(O)c12 [Apigenin] | inactive: 0.74
O=C(Cn1ccnc1[N+](=O)[O-])NCCO [Etanidazole] | inactive: 1.93
Cn1c(=O)c2nc[nH]c2n(C)c1=O [Theophylline monohydrate] | inactive: 2.36
c1ccc(C2CN3CCSC3=N2)cc1 (configuration not stated) [Tetramisole hydrochloride] | inactive: 2.17
C=C1c2cccc(O)c2C(=O)C2=C(O)[C@]3(O)C(=O)C(C(N)=O)=C(O)[C@@H](N(C)C)[C@@H]3[C@@H](O)[C@H]12 [Methacycline hydrochloride] | inactive: 1.04
COc1cc2cc3c4cc(OC)c(OC)cc4cc[n+]3c(C)c2cc1OC [Coralyne chloride hydrate] | inactive: 1.43
Cc1scc2c1N(C(=O)CN1CCN(C)CC1)c1ccccc1NC2=O [Telenzepine dihydrochloride] | inactive: 1.16
COc1ccc(CN(CCN(C)C)c2ccccn2)cc1 [Pyrilamine maleate] | inactive: 2.36
CCCNC(C)C(=O)Nc1ccccc1C (configuration not stated) [Prilocaine hydrochloride] | active: 2.88
CC(COc1ccccc1)N(CCCl)Cc1ccccc1 (configuration not stated) [Phenoxybenzamine hydrochloride] | inactive: 2.04
CC(=O)c1ccc(S(=O)(=O)NC(=O)NC2CCCCC2)cc1 [Acetohexamide] | inactive: 1.4
CCCCC[C@H](O)/C=C/[C@@H]1[C@@H](C/C=C\CCCC(=O)O)[C@@H](O)C[C@H]1O [Dinoprost trometamol] | inactive: 0.443
CCOC(=O)c1ccc(OC(=O)CCCCCNC(=N)N)cc1 [Gabexate mesilate] | inactive: 1.01

Structure (SMILES) | cell-surface Lgr5 expression
Cc1cc(=O)oc2cc(O)ccc12 [Hymecromone] | inactive: 2.16
CCOC(=O)OC(C)OC(=O)[C@@H]1N2C(=O)[C@@H](NC(=O)[C@H](N)c3ccccc3)[C@H]2SC1(C)C (some centres not stated) [Bacampicillin hydrochloride] | inactive: 1.37
NCCCC[C@H](N[C@@H](CCc1ccccc1)C(=O)O)C(=O)N1CCC[C@H]1C(=O)O [Lisinopril] | inactive: 1.23
CC(C)(C)NC[C@H](O)COc1nsnc1N1CCOCC1 [Timolol maleate salt] | inactive: 1.91
C1CCN2C[C@@H]3C[C@@H](CN4CCCC[C@@H]34)[C@H]2C1 [Sparteine (-)] | inactive: 2.2
CC1CC(OC(=O)C(O)c2ccccc2)CC(C)(C)N1C (configuration not stated) [Eucatropine hydrochloride] | inactive: 1.67
Cc1nnc(NS(=O)(=O)c2ccc(N)cc2)s1 [Sulfamethizole] | inactive: 2.2
CCN1CCC[C@H]1CNC(=O)c1c(OC)ccc(Br)c1OC [Remoxipride Hydrochloride] | inactive: 1.35
O=C(O)COC(=O)Cc1ccccc1Nc1c(Cl)cccc1Cl [Aceclofenac] | inactive: 1.12
Cc1cc(/C=C/c2ccc3cc(N(C)C)ccc3[n+]2C)c(C)n1-c1ccccc1 [Pyrvinium pamoate] | inactive: 1.37
CCn1nc(C(=O)O)c(=O)c2cc3c(cc21)OCO3 [Cinoxacin] | inactive: 0.993
CCCCNc1ccc(C(=O)OCCOCCOCCOCCOCCOCCOCCOCCOCCOC)cc1 [Benzonatate] | inactive: 1.25
O=C(O)/C=C/c1ccc(Cn2ccnc2)cc1 [Ozagrel hydrochloride] | inactive: 0.918
Oc1ccc(OCc2ccccc2)cc1 [Monobenzone] | inactive: 1.41
C[C@H]1C[C@H]2[C@@H]3CCC4=CC(=O)C=C[C@]4(C)[C@@]3(F)[C@@H](O)C[C@]2(C)[C@@]1(O)C(=O)CO [Betamethasone] | inactive: 2.1
Cc1ccc(Cl)c(Nc2ccccc2C(=O)O)c1Cl [Meclofenamic acid sodium salt monohydrate] | inactive: 1.97
COC(=O)Nc1nc2ccc(SC(C)C)cc2[nH]1 [Methiazole] | inactive: 1.51
CCN1CCN(C(=O)N[C@@H](C(=O)N[C@@H]2C(=O)N3C(C(=O)O)=C(CSc4nnnn4C)CS[C@H]23)c2ccc(O)cc2)C(=O)C1=O [Cefoperazone dihydrate] | inactive: 0.272
CC(C(=O)O)c1ccc(N2Cc3ccccc3C2=O)cc1 (configuration not stated) [Indoprofen] | inactive: 0.0489
CC1=Nc2ccc(Cl)cc2S(=O)(=O)N1 [Diazoxide] | inactive: 1.43
C[C@H](O)C(=O)Nc1c(I)c(C(=O)NC(CO)CO)c(I)c(C(=O)NC(CO)CO)c1I [Iopamidol] | inactive: 1.77

Compounds listed so far containing an aryl methoxy group (4):
Structure (SMILES) | cell-surface Lgr5 expression
COc1c(O[C@@H]2O[C@H](CO)[C@@H](O)[C@H](O)[C@H]2O)cc2c(c1OC)-c1ccc(SC)c(=O)cc1[C@@H](NC(C)=O)CC2 [Thiocolchicoside] | inactive: 1.72
COc1cc2cc3c4cc(OC)c(OC)cc4cc[n+]3c(C)c2cc1OC [Coralyne chloride hydrate] | inactive: 1.43
COc1ccc(CN(CCN(C)C)c2ccccn2)cc1 [Pyrilamine maleate] | inactive: 2.36
CCN1CCC[C@H]1CNC(=O)c1c(OC)ccc(Br)c1OC [Remoxipride Hydrochloride] | inactive: 1.35

Remaining list, next part:

Structure (SMILES) | cell-surface Lgr5 expression
CC(C)CC(=O)N[C@H](C(=O)N[C@H](C(=O)N[C@@H](CC(C)C)[C@@H](O)CC(=O)N[C@@H](C)C(=O)N[C@@H](CC(C)C)[C@@H](O)CC(=O)O)C(C)C)C(C)C [Pepstatin A] | inactive: 1.65
CC[C@H]1OC(=O)[C@H](C)[C@@H](O[C@H]2C[C@@](C)(OC)[C@@H](O)[C@H](C)O2)[C@H](C)[C@@H](O[C@@H]2O[C@H](C)C[C@H](N(C)C)[C@H]2O)[C@](C)(O)C[C@@H](C)[C@@H]2N[C@@H](COCCOC)O[C@H]([C@H]2C)[C@]1(C)O [Dirithromycin] | inactive: 2.18
O=C1CC2(CCCC2)CC(=O)N1CCCCN1CCN(c2ncccn2)CC1 [Buspirone hydrochloride] | inactive: 2.44
Cc1cc(CC(=O)O)n(C)c1C(=O)c1ccc(Cl)cc1 [Zomepirac sodium salt] | inactive: 2.05
CO/N=C(\C(=O)N[C@@H]1C(=O)N2C(C(=O)O)=C(COC(N)=O)CS[C@H]12)c1ccco1 [Cefuroxime sodium salt] | inactive: 1.85
O=C(NCC(O)CO)c1c(I)c(C(=O)NCC(O)CO)c(I)c(N(CCO)C(=O)CO)c1I (configuration not stated) [Ioversol] | inactive: 2.24
Nc1ccc(S(=O)(=O)Nc2ccnn2-c2ccccc2)cc1 [Sulfaphenazole] | inactive: 1.49
CC1Cc2ccccc2N1NC(=O)c1ccc(Cl)c(S(N)(=O)=O)c1 (configuration not stated) [Indapamide] | inactive: 1.04
O=S(=O)(O)c1cc(O)ccc1O [Ethamsylate] | inactive: 1.15
c1ccc([C@H]2CN3CCSC3=N2)cc1 [Levamisole hydrochloride] | inactive: 1.21
CCC(=O)O[C@]1(C(=O)CCl)[C@@H](C)C[C@H]2[C@@H]3CCC4=CC(=O)C=C[C@]4(C)[C@@]3(F)[C@@H](O)C[C@@]21C [Clobetasol propionate] | active: 2.58
O=C1C[C@@H](c2ccc(O)cc2)Oc2cc(O)cc(O)c21 [Naringenine] | inactive: 0.807
O=C1OCCN1/N=C/c1ccc([N+](=O)[O-])o1 [Furazolidone] | inactive: 1.9
CCOC(=O)Oc1c(OC)cc(C(=O)O[C@@H]2C[C@@H]3CN4CCc5c([nH]c6cc(OC)ccc56)[C@H]4C[C@@H]3[C@H](C(=O)OC)[C@H]2OC)cc1OC [Syrosingopine] | inactive: 2.07
CC[N+]1(C)C2CCC1CC(OC(=O)C1CCC(C(=O)OC3CC4CCC(C3)[N+]4(C)CC)(c3ccccc3)c3ccccc31)C2 (stereo not drawn) [beta- Belladonnine dichloroethylate] | inactive: 1.92
COc1ccc(C2CNC(=O)C2)cc1OC1CCCC1 (configuration not stated) [Rolipram] | inactive: 1.82
c1ccc2c3c([nH]c2c1)C1C2CCC(C4CCCNC42)N1CC3 (configuration not stated) [Nitrarine dihydrochloride] | inactive: 1.74
CN1CC[C@]23c4ccccc4N[C@H]1[C@]21CCN(C)[C@H]3Nc2ccccc21 [Calycanthine] | inactive: 2.32
C[C@H]1C[C@@H]2[C@H]([C@@H](O)C[C@@]3(C)[C@H]2CC[C@]3(O)C(=O)CO)[C@@]2(C)C=CC(=O)C=C12 [Methylprednisolone, 6-alpha] | active: 2.92
CCCNCC(O)COc1ccccc1C(=O)CCc1ccccc1 (configuration not stated) [Propafenone hydrochloride] | inactive: 2
